Experimental data reported in PubChem BioAssay AID1259415 (National Center for Advancing Translational Sciences (NCATS), 2018).
Screen size: about 410,000 compounds; about 18,000 (4.4%) were called active. Inconclusive results, whose numbers are uncertain, are shown with a selection of clear calls. Rule as the data show it: active = activity change below about -60%; inconclusive = no clear call, values can overlap the other calls; inactive = above about -39%.

experiment: qHTS Assay for inhibitors of the human cytomegalovirus (HCMV); conditions: HFF cells, HCMV-luciferase reporter, 72 h; at 57.5 µM; stronger effect = lower value
In short: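 Steps: HFFs plated, 16 h 37C; compounds added; HCMV-luciferase added to MOI 1 PFU/cell; 72 h 37C; OneGlo reagent, 5 min room temperature; luminescence read, normalized to controls.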
% is scaled to controls: 0 for no effect and ±100 for the full control effect.

| SMILES | activity change, negative = inhibition |
| --- | --- |
| COc1ccc(C)cc1NC(=O)Cc1csc(NC(=O)Nc2ccccc2OC)n1 | inconclusive: -52.3% |
| O=C(CNC(=O)COc1ccccc1)NCCc1ccccn1 | inactive: 31.2% |
| CCOC(=O)c1[nH]c2ccc(Cl)cc2c1NC(=O)/C=C/c1ccc2c(c1)OCO2 | inconclusive: -46.3% |
| Cn1c(=O)c(C(=O)NNC(=O)c2ccccc2F)c(O)c2ccccc21 | inconclusive: -54.7% |
| CC(C)NC(=O)C1CCC(Cn2c(=O)c3sccc3n(CC(=O)N3CCCC3)c2=O)CC1 (stereo unspecified) | active: -89.2% |
| CC(C)(C)OC(=O)N1CCCC(C(=O)Nc2ccc(C(=O)N3CCCCC3)cc2)C1 (stereo unspecified) | inconclusive: -44.5% |
| O=C(c1ccoc1)N1CCC2(CC1)Oc1ccc(F)cc1C(=O)C21CC(c2ccc(Cl)cc2)=NO1 (stereo unspecified) | inconclusive: -58.8% |
| Cc1ccc(N(CC(=O)NN=C2CCN(C)CC2)S(=O)(=O)c2ccc(C)cc2)cc1 | inconclusive: -49.8% |
| Cc1[nH]c2c(C)cccc2c1CCNC(=O)c1ccc2c(c1[N+](=O)[O-])C(=O)c1ccccc1C2=O | inconclusive: -49.8% |
| O=C(NCc1ccccc1)OC1CC2CC1[C@H]1CCCCN1C2=O (stereo partly specified) | inactive: 31.7% |
| CCOc1ccc(NC(=O)c2cc3c(C)nn(-c4ccccc4)c3s2)cc1 | active: -65.6% |
| COc1ccc(OC)c(C(=O)c2c(C)oc3cc(Br)c(O)c(CN(C)C)c23)c1 | inconclusive: -48% |
| CN1CCc2c(C#N)c(Cl)nc(Cl)c2C1 | inconclusive: -46.7% |
| Cc1ccc(NC(=S)Nc2ccc(F)cc2)c(C)c1 | inconclusive: -56.5% |
| NC1=NC(=O)/C(=C\c2cccnc2)S1 | inconclusive: -58.6% |
| CC(c1ccccc1)N1CCC(CNC(=S)Nc2cccc(Cl)c2)C1 (stereo unspecified) | inconclusive: -57.9% |
| O=C(O)c1cccc(Cn2c(Cl)c(/C=N/NC(=O)c3cccc(O)c3)sc2=O)c1 | inactive: -28.3% |
| COc1cc(CNc2ccc3[nH]c(=O)[nH]c3c2)ccc1OCc1cccc(C)c1 | active: -66.1% |
| O=S(=O)(Nc1ccc2c(c1)OCCO2)c1ccc(Br)s1 | inconclusive: -43.5% |

| SMILES | activity change, negative = inhibition |
| --- | --- |
| CCCOc1ccc(C(=O)CCC(=O)OCC(=O)N2CC(=O)Nc3ccccc32)cc1 | inactive: -19% |
| O=C(O)C1CCCCC1C(=O)NC1C2CC3CC(C2)CC1C3 (stereo unspecified) | inactive: 7.67% |
| CCN(CC)CCCNc1nc2ccccc2c2nc(-c3ccncc3)nn12 | inconclusive: -58.2% |
| Cc1nnc2ccc(N3CCN(C(=O)c4ccccc4)CC3)nn12 | inactive: 7.85% |
| COc1ccc2c(c1)C1(C(=O)O)CC=CCC1(C(=O)O)C2 (stereo unspecified) | inactive: 10.2% |
| Cc1ccc(C)c(Cn2cnc3c(cnn3C(C)(C)C)c2=O)c1 | inconclusive: -54.7% |
| COc1ccc(S(=O)(=O)N2CCOCC2)cc1C(=O)Nc1ccc(N2CCCCCC2)cc1 | inconclusive: -46.8% |
| CCC(=O)Nc1nnc(S(=O)(=O)N2c3ccccc3CC2C)s1 (stereo unspecified) | inconclusive: -41.8% |
| Cc1cc(C(=O)NNC(=O)Nc2ccc(Cl)cc2)no1 | inactive: 85.5% |
| CCOC(=O)N1CCC(n2c(SCC(=O)Nc3ccccc3OC)nc3ccccc3c2=O)CC1 | inconclusive: -44% |
| Cn1nnnc1SCC(=O)N1N=C(c2ccc(Cl)cc2)CC1c1ccco1 (stereo unspecified) | inactive: 37.5% |
| COc1ccccc1C(=O)N(c1ccc(C)cc1)S(=O)(=O)c1ccc(Cl)cc1 | inconclusive: -45.4% |
| Cc1cc2nc(-c3ccc(=O)[nH]c3)n(Cc3ccccc3)c2cc1C | inactive: 122% |
| CCOC(=O)c1ccc(-c2c(-c3ccccc3OC)oc3ccccc23)cc1F | inactive: -1.28% |
| O=C(Nc1cccc(-c2cn3cccnc3n2)c1)c1ccc2c(c1)OCO2 | inactive: 36.6% |
| COc1cccc(Cl)c1NC(=O)N1CCN(c2ccnc3cc(Cl)ccc23)CC1 | inconclusive: -59.1% |
| COc1ccc(S(=O)(=O)N2CCOCC2)cc1NC(=O)Cc1c(Cl)cccc1Cl | inactive: 1.93% |
| COc1cc(/C(C)=N/N2CCN(c3ccccc3OC)CC2)ccc1O | inactive: 132% |
| COc1ccc(-c2noc(CSc3nc4ccccc4[nH]3)n2)cc1OC | active: -60.1% |

In another format: results already given.
SMILES	activity change, negative = inhibition
CCCOc1ccc(C(=O)CCC(=O)OCC(=O)N2CC(=O)Nc3ccccc32)cc1	inactive: -19%
O=C(O)C1CCCCC1C(=O)NC1C2CC3CC(C2)CC1C3 (stereo unspecified)	inactive: 7.67%
CCN(CC)CCCNc1nc2ccccc2c2nc(-c3ccncc3)nn12	inconclusive: -58.2%
Cc1nnc2ccc(N3CCN(C(=O)c4ccccc4)CC3)nn12	inactive: 7.85%
COc1ccc2c(c1)C1(C(=O)O)CC=CCC1(C(=O)O)C2 (stereo unspecified)	inactive: 10.2%
Cc1ccc(C)c(Cn2cnc3c(cnn3C(C)(C)C)c2=O)c1	inconclusive: -54.7%
COc1ccc(S(=O)(=O)N2CCOCC2)cc1C(=O)Nc1ccc(N2CCCCCC2)cc1	inconclusive: -46.8%
CCC(=O)Nc1nnc(S(=O)(=O)N2c3ccccc3CC2C)s1 (stereo unspecified)	inconclusive: -41.8%
Cc1cc(C(=O)NNC(=O)Nc2ccc(Cl)cc2)no1	inactive: 85.5%
CCOC(=O)N1CCC(n2c(SCC(=O)Nc3ccccc3OC)nc3ccccc3c2=O)CC1	inconclusive: -44%
Cn1nnnc1SCC(=O)N1N=C(c2ccc(Cl)cc2)CC1c1ccco1 (stereo unspecified)	inactive: 37.5%

(next part)

| SMILES | activity change, negative = inhibition |
| --- | --- |
| COc1ccc(CCNC(=O)Cn2c(=O)oc3cc(Cl)ccc32)cc1OC | inconclusive: -43.9% |
| Cc1cccc(NC(=O)c2nc[nH]c2C(=O)N2CCN(c3ccccc3)CC2)c1 | inconclusive: -58.7% |
| CN(Cc1c(F)cccc1Cl)C(=O)CNC(=O)c1cccs1 | inactive: 68.4% |
| Cc1ccc(S(=O)(=O)n2nc(-c3ccco3)nc2N)cc1 | active: -67.2% |
| Cc1ccc(NC(=O)CSc2nnc3n2CCCCC3)cc1 | inconclusive: -45.4% |
| O=C(Nc1ccc(NC(=O)c2ccco2)cc1)c1ccc2c(c1)OCO2 | inconclusive: -47.5% |
| COc1ccc(S(=O)(=O)NCC(c2ccco2)S(=O)(=O)c2cccs2)cc1F (stereo unspecified) | inconclusive: -49.6% |
| Cc1cccc(-c2nc3c(cnn3-c3ccccc3)c(=O)n2-c2ccc(Cl)cc2)c1 | inactive: 5.18% |
| Cc1ccc(-c2cc(C(=O)Nc3ccncc3)c3ccccc3n2)cc1 | inactive: 6.95% |
| CCn1c(SCc2ccc(F)cc2)nc2ccccc2c1=O | inconclusive: -40.3% |
| O=C(c1ccc(Cl)c(S(=O)(=O)N2CCCC2)c1)N1CCN(c2ccccc2F)CC1 | inconclusive: -56.5% |
| CC(=O)Nc1ccccc1NS(=O)(=O)c1ccc(Cl)cc1 | inconclusive: -44.3% |
| Oc1c(CN2CCOCC2)cc(COCc2ccccc2)c2cccnc12 | active: -95.2% |
| COc1ccc(NC(=O)Nc2cccc(C(F)(F)F)c2)cn1 | active: -62.7% |
| COc1ccc(NS(=O)(=O)c2cc(NC(=O)c3ccco3)ccc2N2CCCCC2)cc1 | active: -75.9% |
| CN(C)/C=C/C(=O)c1ccc(Br)cc1 | inconclusive: -53.7% |
| O=C(CSc1nnc(-c2ccc(F)cc2)o1)NC1CCCCC1 | inconclusive: -45% |
| Cc1cc(C)c2nc(-c3ccccn3)cc(C(=O)Nc3ccc(S(=O)(=O)Nc4cc(C)on4)cc3)c2c1 | inactive: 14.2% |
